Experimental data reported in the supplement of paper PMC10849652.
This is one part of the list.

Amino acid sequences for entries named in this document (tags omitted). A change or cut given only in a name is not applied to a line headed by its entry.
UniProt Q96LT7: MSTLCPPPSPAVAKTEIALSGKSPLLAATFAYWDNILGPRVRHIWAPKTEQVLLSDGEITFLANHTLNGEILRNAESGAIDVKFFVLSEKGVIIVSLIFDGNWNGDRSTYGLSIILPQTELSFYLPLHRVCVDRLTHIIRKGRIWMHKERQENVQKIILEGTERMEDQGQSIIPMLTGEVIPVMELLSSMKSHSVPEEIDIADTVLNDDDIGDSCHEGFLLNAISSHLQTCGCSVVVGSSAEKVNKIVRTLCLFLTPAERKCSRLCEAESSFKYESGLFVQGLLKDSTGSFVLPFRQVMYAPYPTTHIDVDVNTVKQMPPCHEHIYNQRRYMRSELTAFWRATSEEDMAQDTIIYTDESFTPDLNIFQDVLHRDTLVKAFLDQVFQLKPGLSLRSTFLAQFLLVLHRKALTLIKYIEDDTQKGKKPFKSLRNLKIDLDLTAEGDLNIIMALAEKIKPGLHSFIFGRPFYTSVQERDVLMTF
UniProt Q9H9S4: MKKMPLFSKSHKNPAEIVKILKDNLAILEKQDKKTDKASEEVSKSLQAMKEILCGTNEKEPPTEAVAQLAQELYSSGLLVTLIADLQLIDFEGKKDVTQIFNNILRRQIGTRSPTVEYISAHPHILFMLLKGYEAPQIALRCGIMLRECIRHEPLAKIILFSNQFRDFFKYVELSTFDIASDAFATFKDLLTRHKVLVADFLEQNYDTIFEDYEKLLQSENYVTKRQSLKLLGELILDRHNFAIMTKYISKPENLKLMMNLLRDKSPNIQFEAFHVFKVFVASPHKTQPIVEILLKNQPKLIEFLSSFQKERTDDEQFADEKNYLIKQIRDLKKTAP
UniProt Q5SQH8: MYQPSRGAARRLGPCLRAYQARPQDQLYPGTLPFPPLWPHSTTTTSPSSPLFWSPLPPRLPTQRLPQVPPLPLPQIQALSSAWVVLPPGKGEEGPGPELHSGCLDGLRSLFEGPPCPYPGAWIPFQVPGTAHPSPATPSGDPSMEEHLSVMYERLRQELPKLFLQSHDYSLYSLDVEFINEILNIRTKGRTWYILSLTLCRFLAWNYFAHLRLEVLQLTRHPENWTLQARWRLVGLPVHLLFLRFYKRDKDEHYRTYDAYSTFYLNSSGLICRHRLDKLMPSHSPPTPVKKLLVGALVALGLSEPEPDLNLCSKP
UniProt Q9Y426: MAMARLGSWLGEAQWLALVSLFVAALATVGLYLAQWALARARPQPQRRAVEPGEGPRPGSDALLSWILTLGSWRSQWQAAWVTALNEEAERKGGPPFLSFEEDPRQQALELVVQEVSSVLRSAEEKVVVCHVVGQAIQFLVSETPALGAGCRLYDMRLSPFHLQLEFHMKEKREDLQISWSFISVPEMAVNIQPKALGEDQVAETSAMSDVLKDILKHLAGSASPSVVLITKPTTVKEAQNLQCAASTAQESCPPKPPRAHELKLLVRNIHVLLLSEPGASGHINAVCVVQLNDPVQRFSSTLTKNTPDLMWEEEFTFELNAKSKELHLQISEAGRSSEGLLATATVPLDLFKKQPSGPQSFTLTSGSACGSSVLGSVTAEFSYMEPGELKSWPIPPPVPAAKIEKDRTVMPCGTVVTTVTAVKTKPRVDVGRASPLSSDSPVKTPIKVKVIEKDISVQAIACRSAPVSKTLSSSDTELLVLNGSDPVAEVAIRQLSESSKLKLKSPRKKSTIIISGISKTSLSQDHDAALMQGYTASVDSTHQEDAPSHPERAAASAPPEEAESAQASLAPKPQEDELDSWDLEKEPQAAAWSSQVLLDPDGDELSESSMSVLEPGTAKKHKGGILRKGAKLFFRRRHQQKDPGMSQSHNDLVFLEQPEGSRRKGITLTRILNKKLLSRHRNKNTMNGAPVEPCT
UniProt Q9UFG5: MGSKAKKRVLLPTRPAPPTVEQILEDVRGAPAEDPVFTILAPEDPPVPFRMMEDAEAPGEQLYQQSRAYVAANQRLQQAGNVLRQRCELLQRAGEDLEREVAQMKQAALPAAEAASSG
UniProt Q13554, whole entry, looked up: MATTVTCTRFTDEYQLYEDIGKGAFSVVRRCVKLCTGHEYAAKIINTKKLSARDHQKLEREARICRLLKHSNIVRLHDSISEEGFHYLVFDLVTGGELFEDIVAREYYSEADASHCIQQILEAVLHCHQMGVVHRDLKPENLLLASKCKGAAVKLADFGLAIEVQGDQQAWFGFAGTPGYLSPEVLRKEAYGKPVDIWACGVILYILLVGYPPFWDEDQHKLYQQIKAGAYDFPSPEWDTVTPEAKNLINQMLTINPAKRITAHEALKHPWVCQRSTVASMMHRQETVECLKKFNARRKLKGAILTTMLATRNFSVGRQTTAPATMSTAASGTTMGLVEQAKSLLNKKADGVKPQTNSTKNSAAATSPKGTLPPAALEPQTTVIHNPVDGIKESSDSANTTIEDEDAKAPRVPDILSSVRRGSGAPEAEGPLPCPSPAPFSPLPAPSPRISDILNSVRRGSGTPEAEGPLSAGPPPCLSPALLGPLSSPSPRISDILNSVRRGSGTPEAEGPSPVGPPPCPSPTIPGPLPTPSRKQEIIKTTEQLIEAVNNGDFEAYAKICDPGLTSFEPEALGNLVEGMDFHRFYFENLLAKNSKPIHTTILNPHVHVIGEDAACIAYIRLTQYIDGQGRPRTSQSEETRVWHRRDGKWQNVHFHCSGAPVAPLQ

What was measured:
Assay in all cases: log2 fold change, soluble protein after heating vs DMSO (PISA); higher = thermal stabilisation; K562 lysate, 10 uM; active = over 0.2 and 3.5 SD of the protein, either way, in both replicates (recomputed)
erlotinib = compound: C#Cc1cccc(Nc2ncnc3cc(OCCOC)c(OCCOC)cc23)c1 [erlotinib]
Method in brief: (§1)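 Following dounce homogenisation of K562 pellets in PBS pH 7.4 with 1 mM MgCl2, crude extract at 1 mg/mL protein was incubated for 30 min with 10 μM compound. Aliquots were then heated for 3 min over 48°C-58°C and pooled, NP-40 was added to 0.5% at 4°C, and soluble protein was recovered as the supernatant at 21,000xg for 90 min. Channel-sum-equalised TMTpro 16plex LC-MS/MS quantified this protein. Each value, from duplicates, is a log-two fold change in thermal stability relative to solvent controls.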

[1] = compound: C1=CC(=CC=C1C2=NC3=C(N2)C=C(C=C3)C(=O)N)OC4=CC=C(C=C4)Cl
Method in brief: as §1

[2] = compound: C1=CC2=NC=CN=C2C=C1/C=C/3\C(=O)NC(=O)S3
Method in brief: as §1

[3] = compound: C1=CC=C(C=C1)C2=NC(=C(N2)C3=CC=NC=C3)C4=CC(=C(C=C4)Cl)O
Method in brief: as §1

[4] = compound: C1CCN(C1)C(=O)NC2=CC=CC(=C2)NC3=NC=C(C(=N3)NCCC4=CN=CN4)Br
Method in brief: as §1

[5] = compound: C1CN(CCC1(CC2=CC=C(C=C2)Cl)N)C3=NC=NC4=C3C=CN4
Method in brief: as §1

IRAK-1-4 Inhibitor I = compound: C1COCCN1CCN2C3=CC=CC=C3N=C2NC(=O)C4=CC(=CC=C4)[N+](=O)[O-] [IRAK-1-4 Inhibitor I]
Method in brief: as §1

[6] = compound: C/C(=N\NC(=O)C1=CC(=CC=C1)S(=O)(=O)N2CCOCC2)/C3=C(C=CC(=C3)Cl)O
Method in brief: as §1

[7] = compound: C1=CC2=C(C=CC(=C2)/C=C\3/C(=O)NC(=NCC4=CC=CS4)S3)N=C1
Method in brief: as §1

[8] = compound: C1=CC=C2C(=C1)C3=NNC4=CC=CC(=C43)C2=O
Method in brief: as §1

Measured: log2 fold change

C9orf72 (UniProt Q96LT7)
inactive: erlotinib -0.043 | [1] 0.056 | [2] -0.01 | [3] -0.041 | [4] 0.056 | [5] -0.068 | IRAK-1-4 Inhibitor I -0.042

CAB39L (UniProt Q9H9S4)
inactive: erlotinib 0.021 | [6] -0.197 | [1] -0.01 | [7] 0 | [2] -0.005 | [3] 0.069 | [8] -0.009 | IRAK-1-4 Inhibitor I 0.027

CAND1 (UniProt F5H6I6)
inactive: erlotinib 0.037 | [1] 0.061 | [2] -0.003 | [3] 0.071 | [4] -0.078 | [5] 0.122 | IRAK-1-4 Inhibitor I 0.015

C6orf136 isoform 4 (UniProt Q5SQH8)
inactive: erlotinib 0.105 | [6] -0.856 | [1] -0.11 | [7] -0.015 | [3] -0.076 | [8] 0.043 | [4] 0.042 | [5] -0.126 | IRAK-1-4 Inhibitor I 0.121

C2CD2 (UniProt Q9Y426)
inactive: erlotinib -0.063 | [1] 0.108 | [2] -0.089 | [3] 0.08 | [4] -0.069 | [5] 0.138 | IRAK-1-4 Inhibitor I -0.005

C19orf25 (UniProt Q9UFG5)
inactive: erlotinib 0.076 | [6] -0.05 | [1] 0.02 | [7] 0.073 | [2] -0.156 | [3] 0.034 | [8] -0.045 | IRAK-1-4 Inhibitor I -0.006

CAMK2B (UniProt Q13554)
inactive: erlotinib 0.037 | [6] 0.086 | [1] -0.067 | [7] -0.039 | [2] -0.068 | [3] -0.069 | [4] 0.011 | [5] -0.034 | IRAK-1-4 Inhibitor I 0.087

CAP1 (UniProt Q5T0R8)
inactive: erlotinib 0.045 | [1] 0.144

Quoted from the results shown (2 entries):
C6orf136 isoform 4 (UniProt Q5SQH8)
inactive: erlotinib 0.105 | [6] -0.856 | [1] -0.11 | [7] -0.015 | [3] -0.076 | [8] 0.043 | [4] 0.042 | [5] -0.126 | IRAK-1-4 Inhibitor I 0.121

C2CD2 (UniProt Q9Y426)
inactive: erlotinib -0.063 | [1] 0.108 | [2] -0.089 | [3] 0.08 | [4] -0.069 | [5] 0.138 | IRAK-1-4 Inhibitor I -0.005

(list continues)

CAD (UniProt H7BZB3)
inactive: erlotinib 0.126 | [6] -0.127 | [1] -0.28 | [7] -0.069 | [8] -0.034 | [4] -0.035 | [5] -0.007
